Structures can show the parent of a compound that is named as a salt. The list shows a part of the results. This data set is noisy: repeats of one test often differ as much as different tests do.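 A first-round screen of about ten thousand compounds sought those raising reporter output, using human embryonic kidney cells briefly transfected with a plasmid carrying a Renilla luciferase gene driven by the HSV-TK promoter.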

The assay relates to HEK 293FT. Description: log relative Renilla luciferase luminescence (reporter expression vs reference, reference not stated) (log (base not stated)); higher = higher recombinant reporter expression. The following applies: 10 µM; time after transfection 48 h.
With `N#C/C(=C(/N)Sc1ccc(N)cc1)c1ccccc1C(F)(F)F`, the log amounted to 0.0106.
The figure for `COc1cc2c(cc1OC)-c1c/c(=N\c3c(C)cc(C)cc3C)n(C)c(=O)n1CC2` [Trequinsin hydrochloride] is -0.0418; for `O=C1CC2(CCCC2)CC(=O)N1CCCCNCC1COc2ccccc2O1` (centres undefined) it is 0.0665; for `COc1cccc(NC(=O)/C=C/c2ccc(Cl)cc2)c1` it is -0.0919.
The figure for `CN(CCCN1c2ccccc2CCc2ccccc21)CC(=O)c1ccc(Cl)cc1` [Lofepramine] is 0.0254; for `Cc1nc2sccn2c(=O)c1CCN1CCC(=C(c2ccc(F)cc2)c2ccc(F)cc2)CC1` [Ritanserin] it is 0.169; for `NS(=O)(=O)Cc1noc2ccccc12` [Zonisamide] it is -0.0455.
`CC(C)SC(=N)N` [S-Isopropylisothiourea hydrobromide]: the log is -0.022.
With `CCN(CC)CCCCN1c2ccccc2Oc2ccc(Cl)cc21` [10-DEBC hydrochloride], the log is -0.0188.
Turning to `CCCCCCCCCCCCCCCC(=O)O[C@H](CC(=O)O)C[N+](C)(C)C` (racemic) [(±)-Palmitoylcarnitine chloride], the log amounted to 0.0984.
Then `CC/C(=C(\c1ccccc1)c1ccc(OCCN(C)C)cc1)c1ccccc1` [Tamoxifen citrate], with 0.00213; and `CS(=O)(=O)c1ccc(Cn2c3c(c4cc(F)cc(F)c42)CCCC3CC(=O)O)cc1` (centres undefined), with 0.117.
The figure for `COc1ccc(-c2ccc(=N)n(CCCC(=O)O)n2)cc1` is -0.0824; for `Cc1scc2c1N(C(=O)CN1CCN(C)CC1)c1ccccc1NC2=O` [Telenzepine dihydrochloride] it is 0.0774.
The figure for `CCCN(CC1CC1)c1nc(C)nc(Nc2c(Cl)cc(Cl)cc2Cl)c1Cl` is 0.264; for `CN1CC(=O)N=C1NC(=O)Nc1cccc(Cl)c1` [Fenobam] it is -0.139.
For `Nc1ncnc2n[nH]c(Nc3ccc(F)cc3)c12`, the log is -0.0876.
The figure for `c1ccc(-c2[nH]ncc2-c2ccnc3ccccc23)nc1` is -0.0555.
The figure for `CCC(=O)NC1CCc2cccc(OC)c2C1` (centres undefined) is -0.0536; for `O=C(COc1cccc2c(=O)[nH]ccc12)c1ccccc1` it is -0.14.
Then `CCS(=O)(=O)N(C)[C@H]1c2cc(C#N)ccc2OC(C)(C)[C@@H]1O` [(-)-[3R,4S]-Chromanol 293B], with 0.0637; and `Nc1nnc(Sc2ncc([N+](=O)[O-])s2)s1`, with 0.031; and `CC(C)(C(=O)O)c1ccc(C(O)CCCN2CCC(C(O)(c3ccccc3)c3ccccc3)CC2)cc1` (centres undefined) [Fexofenadine hydrochloride], with -0.0293.
Turning to `Clc1cccc2c1CN(C1=NCCN1)C2`, the log was -0.0785.
The figure for `CC1CCN(CC[C@H]2CCCN2S(=O)(=O)c2cccc(O)c2)CC1` is 0.215; for `Fc1ccc(-c2nc3n(c2-c2ccncc2)CCS3)cc1` it is 0.0646.
Regarding `CN1CCN2c3ncccc3Cc3ccccc3C2C1` (centres undefined) [Mirtazepine], the log was -0.0369.
Then `NCCCCCc1c[nH]cn1` [Impentamine dihydrobromide], with 0.205; and `O=C(Nc1cccc2cccnc12)c1ccc(N2C(=O)[C@@H]3[C@H](C2=O)[C@@H]2C=C[C@H]3C2)cc1` [endo-IWR 1], with 0.0512; and `N=C(CC(O)COc1ccccc1-c1ccccc1)N1CCCCC1` (centres undefined), with 0.0609.
The figure for `Clc1ccccc1CNCC1CCC(CNCc2ccccc2Cl)CC1` (centres undefined) is 0.205; for `NC(=O)N1c2ccccc2CC(O)c2ccccc21` (centres undefined) [Licarbazepine] it is 0.183.
On to `CC1c2ccccc2CN1CC1=NCCN1` (centres undefined), for which the log was 0.0889.
`CCCCCCCCCCCC1=C(O)C(=O)C=C(O)C1=O` [Embelin]: the log is -0.0903.
For `CN1CCN2c3ccccc3Cc3ccccc3C2C1` (centres undefined) [Mianserin hydrochloride], the log is -0.0198.
Take `COc1cc(/C=C(\C#N)C(N)=O)cc(CSc2nc3ccccc3s2)c1O`: the log was -0.0209.
As to `C/C(=N\NC(=O)C1C(=O)NCC1c1ccccc1)c1cccc(Br)c1` (centres undefined), the log was -0.84.
The figure for `CCC(=O)O[C@]1(C(=O)SCF)[C@H](C)C[C@H]2[C@@H]3C[C@H](F)C4=CC(=O)C=C[C@]4(C)[C@@]3(F)[C@@H](O)C[C@@]21C` [Fluticasone propionate] is 0.00849; for `O=C(O)/C=C/c1ccc(Cn2ccnc2)cc1` [Ozagrel hydrochloride] it is 0.0238.

Values taken from the supplement of paper PMC7024190.
